Data source: PubChem BioAssay AID1259308 (NCATS, 2017)
Screen: 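Knock-downs that increase output of a recombinant reporter protein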 (primary screen). Cell system: human HEK293 embryonic kidney cells stably expressing firefly luciferase (HEK-CMV-Luc2-Hygro). Reagent: single siRNA against human genes, 0.8 pmol siRNA per well. Timing: 72 h. Measured: 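Luciferase light (ONE-Glo) measured on one replicate plate set and viability (CellTiter-Glo) on the other, scaled to a negative control siRNA, with robust z-scores and luciferase per cell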. Scale: total luciferase, z-score: higher = more reporter protein produced. Hit rule: 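Active when the median/MAD z-score for overall luciferase is greater than 3; a gene was taken forward for validation with new siRNAs if at least two of its three siRNAs passed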. Calls: active = raised luciferase; inactive = no rise.
This is one part, drawn at random, of about 59,000 reagents. About 1,510 of them (2.6%) were called active. 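Calls use total luciferase alone and ignore viability, so some active siRNAs may act by altering cell number.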 The numbers tell different reagents against one gene apart. Not all columns of the deposit are shown.

total luciferase, z-score, by gene and reagent
SLC38A2: #1 -0.253 inactive; #2 0.306 inactive; #3 -1.44 inactive
RRAGB: #1 1.24 inactive; #2 0.117 inactive; #3 0.677 inactive
PNMA8B: #1 1.79 inactive; #2 -1.66 inactive; #3 0.598 inactive
RFNG: #1 0.0996 inactive; #2 -0.654 inactive; #3 -0.511 inactive
VPS37C: #1 -0.272 inactive; #2 -0.222 inactive; #3 0.313 inactive
SMC1B: #1 -1.07 inactive; #2 -0.227 inactive; #3 0.00184 inactive
OXA1L: #1 0.404 inactive; #2 0.175 inactive; #3 0.369 inactive
CACNA2D2: #1 -0.192 inactive; #2 -1.39 inactive; #3 -1.55 inactive
LRTM1: #1 -0.534 inactive; #2 -0.12 inactive; #3 -1.98 inactive

Quoted from above, 6 entries:
total luciferase, z-score, by gene and reagent
VPS37C: #2 -0.222 inactive; #3 0.313 inactive
SMC1B: #1 -1.07 inactive; #2 -0.227 inactive; #3 0.00184 inactive
OXA1L: #1 0.404 inactive

The list goes on:
total luciferase, z-score, by gene and reagent
TM9SF3: #1 -0.888 inactive; #2 -0.444 inactive; #3 -0.221 inactive
TNKS: #1 0.114 inactive; #2 -0.0954 inactive; #3 0.848 inactive
MAL: #1 0.362 inactive; #2 0.939 inactive; #3 0.185 inactive
GREM1: #1 -0.156 inactive; #2 1.35 inactive; #3 0.505 inactive
KIAA1755: #1 3.21 active; #2 -1.51 inactive; #3 1.32 inactive
CRY1: #1 -0.142 inactive; #2 0.159 inactive; #3 -0.746 inactive
VPS8: #1 -0.864 inactive; #2 -0.582 inactive; #3 0.0403 inactive
RABIF: #1 -1.88 inactive; #2 3 active; #3 1.02 inactive
CHIC1: #1 1.71 inactive; #2 0.376 inactive; #3 1.23 inactive
PRICKLE3: #1 -0.27 inactive; #2 -0.946 inactive; #3 0.15 inactive
CYP27A1: #1 -0.32 inactive; #2 -0.605 inactive; #3 -1.09 inactive
FARSA: #1 0.229 inactive; #2 0.206 inactive; #3 0.641 inactive
ELAVL2: #1 -0.468 inactive; #2 -0.623 inactive; #3 -0.603 inactive
TMEM256P1: #1 0.0819 inactive; #2 -0.947 inactive; #3 0.726 inactive
UCP1: #1 -1.04 inactive; #2 -0.687 inactive; #3 -0.337 inactive
MIEF1: #1 -0.713 inactive; #2 -1.73 inactive; #3 -1.56 inactive
